In PubChem BioAssay AID588590 (National Center for Advancing Translational Sciences (NCATS), 2011):
Out of some 390,000 compounds screened, about 4,000 (1%) were called active. This list was built around the results that the source calls inconclusive (neither active nor inactive); the mix of calls is not that of the screen. The call rests on the fitted dose curve; in most records, active means well fitted inhibition curve with a large enough effect; inconclusive means small, poorly fitted or top-dose-only effect, or another doubt; inactive means no such curve, though single readings can be large or run the other way. Potencies beside an inconclusive call are fits to weak or partial responses and may not hold up.

Sequences of proteins named here, by UniProt entry; tags and fusion partners are left off. A change or cut given only in a name is not applied to a line headed by its entry.
UniProt Q9UNA4: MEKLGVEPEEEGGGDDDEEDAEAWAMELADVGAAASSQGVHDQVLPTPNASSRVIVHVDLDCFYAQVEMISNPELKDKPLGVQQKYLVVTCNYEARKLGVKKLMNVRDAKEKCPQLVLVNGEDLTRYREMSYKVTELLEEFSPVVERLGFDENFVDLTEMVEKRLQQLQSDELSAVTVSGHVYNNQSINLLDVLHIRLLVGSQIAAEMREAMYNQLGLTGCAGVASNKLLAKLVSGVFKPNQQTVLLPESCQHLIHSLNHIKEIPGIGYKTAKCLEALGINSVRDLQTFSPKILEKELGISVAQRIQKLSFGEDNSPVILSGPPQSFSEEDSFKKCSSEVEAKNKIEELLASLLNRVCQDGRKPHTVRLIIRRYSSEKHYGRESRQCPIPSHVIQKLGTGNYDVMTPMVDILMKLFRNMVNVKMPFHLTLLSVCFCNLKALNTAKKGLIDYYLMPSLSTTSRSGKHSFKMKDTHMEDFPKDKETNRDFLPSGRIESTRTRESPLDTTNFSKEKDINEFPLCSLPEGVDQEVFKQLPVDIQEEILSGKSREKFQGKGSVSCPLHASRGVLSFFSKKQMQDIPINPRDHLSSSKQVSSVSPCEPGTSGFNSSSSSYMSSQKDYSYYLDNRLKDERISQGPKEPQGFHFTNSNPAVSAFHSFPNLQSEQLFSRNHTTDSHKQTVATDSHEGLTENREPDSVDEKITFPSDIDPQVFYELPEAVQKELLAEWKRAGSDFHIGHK

These compounds were tested against DNA polymerase iota (Homo sapiens) (UniProt Q9UNA4) (assay: qHTS for Inhibitors of Polymerase Iota). Conditions: Pol iota fluorescent replication assay, 10 min; series mostly up to 115 µM.
Summary of the method: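 Pol iota at 10 nM preincubated 15 min with compounds at room temperature; reaction started with fluorescent substrate, 50 nM final. Fluorescence read kinetically at 0 and 10 min; buffer-only wells as negative control.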
Potency means the concentration at half of the fitted maximal effect.

Structure (SMILES) | Potency
O=C(O)CCCCCNS(=O)(=O)c1cccc2c1C(=O)c1ccccc1C2=O | inconclusive: 70.8 µM [inhibitor, partial curve, poor fit]
Cc1nn(CC(=O)Nc2ccc3c(c2)nc(CN2CCCC2)n3C)c(=O)c2ccccc12 | inconclusive: 56.2 µM [inhibitor, partial curve, poor fit]
C/C(=N\NC(=O)c1cc(O)ccc1O)c1cccc(NC(=O)c2ccc(Cl)cc2)c1 | active: 20 µM
O=S(=O)(c1ccc2c(c1)OCCO2)N1CCc2ccccc21 | inconclusive: 89.1 µM [inhibitor, partial curve, poor fit]
CC(C)C[C@@H]1CN=C(N)N1C[C@@H]1CCCN1C[C@@H](C(C)C)N1C[C@@H](Cc2ccccc2)N(CCc2ccc(Cl)c(Cl)c2)C1=N | inconclusive: 2.51 µM [inhibitor, full curve, poor fit]
CN(C)S(=O)(=O)c1ccc(C(=O)OCC(=O)c2csc(N3CCCCC3)n2)cc1 | inconclusive: 50.1 µM [inhibitor, partial curve, poor fit]
COCCCN1C(=O)C(=O)/C(=C(/O)c2ccccc2)C1c1ccc2c(c1)OCO2 (stereo unspecified) | inconclusive: 3.98 µM [inhibitor, partial curve, poor fit]
COc1cccc(CNC(=O)Cc2ccc(NC(=O)C3=C(C)OCCS3)cc2)c1 | inconclusive: 56.2 µM [inhibitor, partial curve, poor fit]
O=C(Cc1cccs1)Nc1ccccc1 | inactive
O=C(CCN1C(=O)S/C(=C\c2cccs2)C1=O)NC1=NCCS1 | inconclusive: 70.8 µM [inhibitor, partial curve, poor fit]
CCOC(=O)Cc1nc2cc(Cl)ccc2o1 | inactive
CC(=O)NCc1ccc(C(=O)COC(=O)COc2ccc(Cl)c(C)c2)s1 | inconclusive: 20 µM [inhibitor, partial curve, poor fit]
COc1ccc(NC(=O)/C(C#N)=C/c2ccc[nH]2)c(OC)c1 | inconclusive: 89.1 µM [inhibitor, single point]
CSc1nc(Nc2ccc(C)cc2)c(C#N)c(-c2ccccc2)n1 | inactive
CN(N=O)c1ccc(/C=C/c2ccnc3ccccc23)cc1 | inconclusive: 89.1 µM [inhibitor, single point]
O=C1NC(=O)/C(=C/c2ccc(-c3cc(C(=O)O)ccc3Cl)o2)S1 | active: 39.8 µM
O=C(NCCc1nc(-c2ccccc2)no1)c1ccco1 | inconclusive: 35.5 µM [inhibitor, single point]
COc1cc(/C=N/NC(=O)c2ccc3c(c2)OCCO3)c(Br)c(Br)c1O | inconclusive: 12.6 µM [inhibitor, full curve, poor fit]
CCS(=O)(=O)NCC(c1ccco1)N1CCN(c2ccccc2)CC1 (stereo unspecified) | inconclusive: 89.1 µM [inhibitor, single point]
O=C(Cc1cccs1)NCc1cccnc1 | inconclusive: 39.8 µM [inhibitor, single point]
O=C1CCCC2=C1C1(O)C(=O)c3ccccc3C1(O)O2 (stereo unspecified) | inconclusive: 2.24 µM [inhibitor, full curve, poor fit]
CCOc1cc(N2CCOCC2)c(OCC)cc1NC(=O)COC(=O)c1c(CC)noc1C | inactive

2 successive entries out of the list so far:
Structure (SMILES) | Potency
C/C(=N\NC(=O)c1cc(O)ccc1O)c1cccc(NC(=O)c2ccc(Cl)cc2)c1 | active: 20 µM
O=S(=O)(c1ccc2c(c1)OCCO2)N1CCc2ccccc21 | inconclusive: 89.1 µM [inhibitor, partial curve, poor fit]

The list goes on.

Structure (SMILES) | Potency
CCN1CCN(c2ncc3c(n2)CCN(Cc2sccc2C)C3)CC1 | inactive
CC(NC(=O)/C(C#N)=C/c1ccc(OCC(=O)O)cc1)c1ccccc1 (stereo unspecified) | inconclusive: 35.5 µM [inhibitor, single point]
O=C(Nc1nc(-c2ccc3c(c2)OCO3)cs1)C1COc2ccccc2O1 (stereo unspecified) | inconclusive: 17.8 µM [inhibitor, partial curve, poor fit]
NS(=O)(=O)c1ccc(N=Nc2ccc(=O)[nH]c2O)cc1 | inconclusive: 4.47 µM [inhibitor, full curve, poor fit]
Cc1nc(SCC(N)=O)c([N+](=O)[O-])[nH]1 | inactive
COC(=O)c1ccc(/C=C/C(=O)c2cccc(OC)c2)cc1 | inconclusive: 12.6 µM [inhibitor, partial curve, poor fit]
Cc1ccccc1C(=O)Nc1ccccc1NC(=O)c1ccccc1Br | inactive
CN1CCc2c(sc3c2C(=O)NC(/C=C/c2ccco2)N3)C1 (stereo unspecified) | inconclusive: 44.7 µM [inhibitor, full curve]
CCOC(=O)C1=C(O)/C(=C/c2ccc(-c3ccccc3C(=O)O)o2)SC1=Nc1ccc(OC)cc1 | inconclusive: 2.82 µM [inhibitor, full curve, poor fit]
O=[N+]([O-])c1cc2oc3c(c2c(C=NCc2ccncc2)c1O)CCCC3 | inconclusive: 17.8 µM [inhibitor, full curve, poor fit]
CC(C)(CCc1ccccn1)C(=O)CCCc1ccccn1 | inactive
Cc1ccc(N=Cc2nc(-c3ccco3)oc2O)cc1 | inconclusive: 79.4 µM [inhibitor, partial curve, poor fit]
COc1ccc(Cl)cc1Nc1nc2ccc(C(=O)c3ccccc3)cc2n2cnnc12 | inactive
CCn1c(=O)c2cc(C(=O)N3CCN(c4cccc(OC)c4)CC3)sc2c2ccccc21 | inactive
Clc1ccccc1CSc1nnc(-c2ccco2)c(-c2ccco2)n1 | active: 14.1 µM
CCOc1cc(N2CCOCC2)c(OCC)cc1NC1=NCCCCC1 | inconclusive: 0.891 µM [inhibitor, full curve, poor fit]
Cc1cc(C)c(C)c(S(=O)(=O)N2CCN(CC(=O)Nc3ccc([N+](=O)[O-])cc3)CC2)c1C | inconclusive: 89.1 µM [inhibitor, partial curve, poor fit]
NC(=S)N=Nc1c(O)n(Cc2ccc(Br)cc2)c2ccccc12 | inactive
Cc1ccccc1NC(=O)c1c(NC(=O)c2ccncc2)sc2c1CCC(C(C)(C)C)C2 (stereo unspecified) | inconclusive: 89.1 µM [inhibitor, single point]
COC(=O)c1[nH]c2c(c1C)C(=O)CC(c1cccc(OC)c1)C2 (stereo unspecified) | inconclusive: 20 µM [inhibitor, single point]
COc1ccc(-c2nc(SCC(=O)Nc3ccc4c(c3)OCO4)c(-c3ccccc3)[nH]2)cc1 | inconclusive: 56.2 µM [inhibitor, partial curve, poor fit]
Cc1ccc(-n2nnc(-c3cccnc3)n2)cc1 | inconclusive: 39.8 µM [inhibitor, single point]

Structure (SMILES) | Potency
Cc1ccc(C)n1-n1cnc2sc(-c3ccccc3)cc2c1=O | inconclusive: 28.2 µM [inhibitor, single point]
CCOC(=O)Nc1ccc2c(c1)N(C(=O)CCN1CCN3CCCC3C1)c1ccccc1CC2 (stereo unspecified) | inconclusive: 56.2 µM [inhibitor, partial curve, poor fit]
COc1cccc(CCNC(=O)CCCC(=O)c2ccccc2)c1 | inconclusive: 25.1 µM [inhibitor, single point]
CN(C)/[N+]([O-])=N/Oc1ccc([N+](=O)[O-])cc1[N+](=O)[O-] | inconclusive: 22.4 µM [inhibitor, partial curve, poor fit]
Cc1ccc2nc(-c3cccc(-c4cccc(Cl)c4)c3)c(NCc3ccccc3)n2c1 | inconclusive: 25.1 µM [inhibitor, partial curve, poor fit]
COc1ccc2[nH]cc(CCNC(=O)Nc3cccc(F)c3)c2c1 | inconclusive: 89.1 µM [inhibitor, single point]
COc1cccc2sc(Nc3nc(-c4cc5ccccc5oc4=O)cs3)nc12 | inconclusive: 22.4 µM [inhibitor, full curve]
CCOc1ccccc1NC(=O)Cc1csc(COc2cccc(C)c2)n1 | inactive
O=C(NCCc1ccc(Cl)cc1)c1ccc(Cn2c(=O)[nH]c3ccccc3c2=O)cc1 | inactive
Cc1cc(N2C(=O)C(O)=C(C(=O)c3cc4ccccc4o3)C2c2ccc(Cl)cc2)no1 (stereo unspecified) | inactive
CC1=NOC(=O)/C1=C/c1ccc(O)cc1 | inconclusive: 25.1 µM [inhibitor, partial curve, poor fit]
C=CCSc1ccsc1C(=O)O | inconclusive: 11.2 µM [inhibitor, partial curve, poor fit]
COc1cc(-c2nc(-c3ccccc3)c(-c3cc([N+](=O)[O-])ccc3C)[nH]2)cc(OC)c1OC | inconclusive: 35.5 µM [inhibitor, partial curve, poor fit]
Cc1c(C(=O)Nc2ccc(C(F)(F)F)cc2)sc2ncn(CC(=O)N3CCN(c4ccccn4)CC3)c(=O)c12 | inconclusive: 22.4 µM [inhibitor, single point]
CCOc1ccccc1NC(=O)c1cc2cc(C)ccc2n1C | inactive
CNS(=O)(=O)c1cc(OC)ccc1OC | inconclusive: 100 µM [inhibitor, partial curve, poor fit]
COc1ccc(C2=NC(CO)(CO)CO2)cc1 | inconclusive: 0.708 µM [inhibitor, full curve, poor fit]
O=C(c1ccc(Br)s1)N1CCN(S(=O)(=O)c2ccccc2)CC1 | inconclusive: 100 µM [inhibitor, single point]
CN(C)/C=C(/C(=O)c1ccc(Cl)cc1)S(=O)(=O)c1ccc(Cl)cc1 | inactive
O=C(Nc1ccc(F)cc1Cl)C1CCN(c2ncnc3c2nc2n3CCCCC2)CC1 | inactive
C=CCNc1ncnc2c1cnn2-c1cccc(C)c1 | inconclusive: 70.8 µM [inhibitor, single point]
CC(Nc1nc(-c2ccc(F)cc2)cs1)c1nc2cc(Cl)c(N3CCCCC3)cc2n1CCCO (stereo unspecified) | inconclusive: 10 µM [inhibitor, partial curve, poor fit]

Grouped by structure: those above containing an NH in an aromatic ring.
Structure (SMILES) | Potency
COc1ccc(NC(=O)/C(C#N)=C/c2ccc[nH]2)c(OC)c1 | inconclusive: 89.1 µM [inhibitor, single point]
NS(=O)(=O)c1ccc(N=Nc2ccc(=O)[nH]c2O)cc1 | inconclusive: 4.47 µM [inhibitor, full curve, poor fit]
Cc1nc(SCC(N)=O)c([N+](=O)[O-])[nH]1 | inactive
COC(=O)c1[nH]c2c(c1C)C(=O)CC(c1cccc(OC)c1)C2 (stereo unspecified) | inconclusive: 20 µM [inhibitor, single point]
COc1ccc(-c2nc(SCC(=O)Nc3ccc4c(c3)OCO4)c(-c3ccccc3)[nH]2)cc1 | inconclusive: 56.2 µM [inhibitor, partial curve, poor fit]
COc1ccc2[nH]cc(CCNC(=O)Nc3cccc(F)c3)c2c1 | inconclusive: 89.1 µM [inhibitor, single point]
O=C(NCCc1ccc(Cl)cc1)c1ccc(Cn2c(=O)[nH]c3ccccc3c2=O)cc1 | inactive
COc1cc(-c2nc(-c3ccccc3)c(-c3cc([N+](=O)[O-])ccc3C)[nH]2)cc(OC)c1OC | inconclusive: 35.5 µM [inhibitor, partial curve, poor fit]
